Laboratory results from US20220267469A1.
No constants are given. Whether binding was seen depends on the method and setting.

Sequences of proteins named here, by UniProt entry; tags and fusion partners are left off. A change or cut given only in a name is not applied to a line headed by its entry.
UniProt Q64285: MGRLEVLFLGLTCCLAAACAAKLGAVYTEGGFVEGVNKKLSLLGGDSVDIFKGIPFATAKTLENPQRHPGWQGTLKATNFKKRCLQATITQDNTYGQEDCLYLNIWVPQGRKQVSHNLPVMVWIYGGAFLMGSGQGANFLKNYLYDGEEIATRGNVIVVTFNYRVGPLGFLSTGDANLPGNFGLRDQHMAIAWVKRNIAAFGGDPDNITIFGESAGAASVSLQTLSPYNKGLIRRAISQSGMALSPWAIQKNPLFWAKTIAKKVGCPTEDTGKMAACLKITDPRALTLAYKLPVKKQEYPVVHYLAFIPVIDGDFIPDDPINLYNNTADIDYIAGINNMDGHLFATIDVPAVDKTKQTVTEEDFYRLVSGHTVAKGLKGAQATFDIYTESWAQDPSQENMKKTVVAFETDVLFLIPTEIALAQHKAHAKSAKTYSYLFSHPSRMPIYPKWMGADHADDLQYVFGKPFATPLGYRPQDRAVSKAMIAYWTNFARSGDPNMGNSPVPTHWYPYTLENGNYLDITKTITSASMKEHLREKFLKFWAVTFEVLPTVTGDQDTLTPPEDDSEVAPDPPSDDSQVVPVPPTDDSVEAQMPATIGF

Target: Mouse BSSL, recombinant (mouse) (UniProt Q64285)
Test: SPR steady state, antibody captured by anti-Fab

- binding: no binding (tested: 800 nM)
B1: AS20 CDR graft hIgG4 S228P (antibody, V domains shown)
VH: QVQLVQSGAEVKKPGASVKVSCKASGYTFTSYNMHWVRQAPGQGLEWIGVIYPGNGDTSYNQKFKGRVTMTRDTSTSTVYMELSSLRSEDTAVYYCARDYYGSSPLGYWGQGTLVTVSS
VL: DIQMTQSPSSLSASVGDRVTITCSASSSISYMHWYQQKPGKAPKLLIYDTSKLASGVPSRFSGSGSGTDFTLTISSLQPEDFATYYCHQRSSYPTFGQGTKLEIKR
